Source: the supplement of paper PMC7858590
± gives the standard deviation of the averaged measurements. Whole data set: some 3,800 compounds, median “cell shape (eccentricity) Z-score vs DMSO control” near 1.1, cut for the lowest 2% near -4.7. Some of the results follow.

Test system: human monocyte-derived macrophages (M0)
Test: cell shape (eccentricity) Z-score vs DMSO control; higher = more elongated, M2-like morphology
Conditions: 20 µM; 24 h; macrophage state: M0 (M-CSF)
Procedure: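 Primary human monocyte-derived macrophages (M-CSF differentiated, pooled from 4 donors, 5000 cells/well in 384-well plates) were treated with each compound at 20 uM for 24 h, then fixed and stained with phalloidin/DAPI and imaged on an Opera Phenix (6 fields, about 1000 cells/well). Cell eccentricity was measured with CellProfiler, and a Z-score (t-test) was computed against 4 DMSO control wells in the same row. Negative values mean round (M1-like) cells and positive values mean elongated (M2-like) cells; the paper's hit cutoffs are Z <= -4 (M1) and Z >= 6 (M2). Scale: negative = round, M1-like.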

| SMILES | cell shape (Z-score) |
| --- | --- |
| CC(C)c1ccc2c(c1)CCC1[C@](C)(CN)CCC[C@]21C (some centres undefined) | 1.4 |
| Clc1ccc(C2(c3ccc(-c4cn[nH]c4)cc3)CCNCC2)cc1 | 35.5 |
| C[C@@H]1O[C@@H](OC[C@H]2OC(Oc3c(-c4ccc(O)c(O)c4)oc4cc(O)cc(O)c4c3=O)[C@H](O)[C@@H](O)[C@@H]2O)[C@H](O)[C@H](O)[C@H]1O (some centres undefined) | 2.48 |
| CC(C(=O)Nc1cccc(/N=C/c2c(O)ccc3ccccc23)c1)c1ccccc1 (centres undefined) | 11 |
| COC(=O)c1c(C)[nH]c(C)c1C(=O)c1ccccc1Cc1ccccc1 | 1.34 |
| OCc1cc2c(cn1)[nH]c1ccccc12 | 1.25 |
| C[C@@H]1C[C@@H](O)C2[C@@](C)(CO)CCC[C@]2(C)[C@@]1(O)CCc1ccoc1 (some centres undefined) | -1.07 |
| CC1(C)CC(=O)C(C2C3=C(CC(C)(C)CC3=O)Oc3ccccc32)C(=O)C1 (centres undefined) | 0.64 |
| Cc1cc2ncc(-c3ccccc3)nc2cc1C | 2.23 |
| CC(=O)O[C@H]1C[C@@H](OC(C)=O)C(C)(C)C2C[C@@H](OC(C)=O)[C@]3(C)C(CC[C@@]4(C)[C@H](c5ccoc5)OC(=O)[C@H]5O[C@]543)[C@]21C (some centres undefined) | -2.55 |
| Cc1cc(C(C)(C)C)cc(C)c1CC1=NCCN1 | -0.0677 |
| COc1cc(C2c3c(cc(OC)c(O)c3OC)CC(CO)C2COC2OC(CO)C(O)C(O)C2O)cc(OC)c1O (centres undefined) | 2.38 ± 0.58 |
| O=C(O)c1ccccc1Nc1cccc(C(F)(F)F)c1 | 0.77 |
| O=C1Cc2cc(Cl)ccc2N1 | 0.476 |
| OC(CCN1CCCC1)(c1ccccc1)C1CCCCC1 (centres undefined) | -1.76 |
| CN1CCc2c(c3ccccc3n2Cc2ccc(C(=O)NO)cc2)C1 | 2.6 |
| CC(=O)O[C@]1(C(C)=O)CCC2C3C=C(C)C4=CC(=O)CC[C@]4(C)C3CC[C@@]21C (some centres undefined) | -2.18 |
| CCC(C(N)=O)c1ccccc1 (centres undefined) | -0.362 |
| CC(=O)O[C@@]1(C)[C@@H]2CC(=C(C)C)C(=O)C[C@@]2(C)CC[C@H]1OC(=O)C1(C)OC1C (some centres undefined) | 0.417 |
| O=c1c(OC2OC(CO)C(O)C(O)C2OC2OC(CO)C(O)C(O)C2O)c(-c2ccc(O)cc2)oc2cc(O)cc(O)c12 (centres undefined) | 0.138 ± 1.7 |
| Cc1occc(=O)c1O | 4.83 |
| COC(CC(c1c(O)cc2cc(C)oc(=O)c2c1O)c1c(O)cc2cc(C)oc(=O)c2c1O)C(=O)O (centres undefined) | 2.13 |
| COc1cccc(C=NC=Nc2cccc(OC)c2)c1 | 0.294 |
| CC[N+](C)(CC)CCOC(=O)C(O)(c1ccccc1)C1CCCCC1 (centres undefined) | 2.22 |

| SMILES | cell shape (Z-score) |
| --- | --- |
| CN1CCCC(CN2c3ccccc3Sc3ccccc32)C1 (centres undefined) | 2.12 |
| C=C[C@H]1C[N@@]2CC[C@H]1C[C@@H]2[C@H](O)c1ccnc2ccc(OC)cc12 | 0.88 |
| CCCCc1nn(-c2ccccc2C(F)(F)F)c(=O)n1Cc1ccc(-c2ccccc2S(=O)(=O)NC(=O)c2sccc2C)cc1 | -0.189 |
| CC[C@@H]1C(=O)OC[C@@H]1Cc1cncn1C | 0.438 |
| C=C[C@@H](C1=CC(=O)C(OC)=C(OC)C1=O)c1ccccc1 | 2.57 |
| O=C1NC(=S)S/C1=C/c1cc(Br)ccc1OCc1ccccc1Br | 2.28 |
| CCCCOC(=O)c1cc2c(cn1)[nH]c1ccccc12 | 2.67 |
| Cc1ccc(S(=O)(=O)NC(=O)NN2CC3CCCC3C2)cc1 (centres undefined) | 2.77 |
| C[C@@H](N)[C@H]1CC[C@H](C(=O)Nc2ccncc2)CC1 | 19.1 |
| C=C1C(=O)O[C@@H]2/C=C(\C)CC/C=C(\C)CC[C@@H]12 | -1.08 |
| CC1OC(OCC2OC(Oc3cc(O)c4c(=O)c(-c5ccc(O)cc5)coc4c3)C(O)C(O)C2O)C(O)C(O)C1OC1OC(CO)C(O)C(O)C1O (centres undefined) | 1.42 ± 1.7 |
| Cc1ccccc1C(=O)c1ccc(Nc2ccc(Br)cc2N)cc1Cl | -0.179 |
| O=C(O)Cc1csc(-c2ccc(Cl)cc2)n1 | -1.51 |
| COc1ccc(C(=O)c2ccccc2)c(O)c1 | 0.27 |
| CC12CC(c3ccoc3)OC(=O)C1CCC1(C)C2C2OC(=O)C1(O)C1OC21 (centres undefined) | 2.8 |
| CCN1CCCC1CNC(=O)c1cc(S(=O)(=O)CC)c(N)cc1OC (centres undefined) | -0.27 |
| Clc1cccc2c1CN(C1=NCCN1)C2 | 0.256 |
| COc1ncnc(NS(=O)(=O)c2ccc(N)cc2)c1OC | -0.361 |
| NCCCCCCNS(=O)(=O)c1cccc2ccccc12 | 3.27 |
| CC(C)(O)/C=C/C1=CC(O)C(C)(O)CC1O (centres undefined) | -0.696 |
| CC1CCC2(C)C(C(=O)O)=CCCC2C1(C)CCC1=CC(O)OC1=O (centres undefined) | -0.873 |
| COc1c(O)cc2c(c1O)C(=O)OC(C)C2Oc1cc2c(c(O)c1OC)C(=O)OC(C)C2O (centres undefined) | -2.06 |
| N#CCNC(=O)c1ccc(-c2ccnc(Nc3ccc(N4CCOCC4)cc3)n2)cc1 | 13.3 |
| c1ccc(CNc2ncnc3ccccc23)cc1 | 2.78 ± 0.59 |

| SMILES | cell shape (Z-score) |
| --- | --- |
| CC1CC(=O)[C@]2(C)CC[C@]3(C)C(C(=O)C(O)C4[C@@]5(C)CC[C@H](O)C(C)(C(=O)O)C5CC[C@]43C)C2C1C (some centres undefined) | 2.52 |
| CC(=O)O[C@H]1C[C@@H](OC(C)=O)C(C)(C)C2C[C@@H](O)[C@]3(C)C(CC[C@@]4(C)[C@H](c5ccoc5)OC(=O)[C@H]5O[C@]543)[C@]21C (some centres undefined) | 1.01 |
| COc1cc(O)c(OC)c2c1C(=O)CC(c1ccccc1)O2 (centres undefined) | 1.66 |
| COc1cc(N)c(Cl)cc1C(=O)N[C@@H]1CCN(CCCOc2ccc(F)cc2)C[C@@H]1OC | 0.777 |
| CCc1ccccc1OC[C@@H](O)CN[C@H]1CCCc2ccccc21 | 2.06 |
| C=C1C[C@@]23CC[C@@H]4[C@](C)(CO)CCC[C@@]4(C)[C@@H]2CC[C@@H]1C3 | 2.2 |
| C[C@@H]1O[C@@H](O[C@H]2[C@@H]3C=CO[C@@H](O[C@@H]4O[C@H](CO)[C@@H](O)[C@H](O)[C@H]4O)[C@@H]3[C@@]3(CO)O[C@@H]23)[C@H](OC(=O)/C=C/c2ccccc2)[C@H](O)[C@H]1O | -1.05 |
| O=C(O)c1cccnc1Nc1cccc(C(F)(F)F)c1 | 2.97 |
| CC(C)(C)OC(=O)Nc1ccc(-c2cc(C(=O)NCCCCCCC(=O)NO)no2)cc1 | 5.77 |
| C[C@]12CCC3c4ccc(O)cc4CCC3C1CCC2=O (some centres undefined) | 4.84 |
| CCc1nn(CCCN2CCN(c3cccc(Cl)c3)CC2)c(=O)n1CCOc1ccccc1 | 2.38 |
| C=CC(C)(O)CC/C=C(\C)CCC(O)C(C)(C)O (centres undefined) | 0.991 |
| C[C@@H]1CC[C@]2(C(=O)O)CC[C@]3(C(=O)O)C(=CCC4[C@@]5(C)CC[C@H](O[C@@H]6O[C@@H](C)[C@H](O[C@@H]7O[C@H](CO)[C@@H](O)[C@H](O)[C@H]7O)[C@@H](O)[C@H]6O)C(C)(C)C5CC[C@]43C)C2[C@H]1C (some centres undefined) | -0.0356 |
| C[C@]12C[C@H](O)C3C(CC[C@@H]4C[C@H](O)CC[C@]34C)C1CC[C@@H]2C(=O)CO (some centres undefined) | 0.401 |
| O=C(O)c1cc(O)c2cccc(O)c2n1 | 0.344 |
| CCN(CC)C(=S)SSC(=S)N(CC)CC | 6.44 |
| Cn1cc(C2=C(c3cn(CCCSC(=N)N)c4ccccc34)C(=O)NC2=O)c2ccccc21 | 14.6 |
| CC1(C)CC23C(=O)CCC(O)C2(C)CCC13 (centres undefined) | -0.321 |
| COc1ccc(OC)c(C(O)CNC(=O)CN)c1 (centres undefined) | 2.16 |
| CC(=O)N1CCN(c2ccc(OCC3CO[C@](Cn4ccnc4)(c4ccc(Cl)cc4Cl)O3)cc2)CC1 (some centres undefined) | 2.59 |
| NC(=O)N/N=C/c1ccc([N+](=O)[O-])o1 | -0.778 |
| CCCc1c(OCC(O)COc2ccc3c(=O)cc(C(=O)O)oc3c2CCC)ccc(C(C)=O)c1O (centres undefined) | -4.47 |
| COC(=O)c1ccccc1NC(=O)c1ccc(F)cc1 | 0.691 |
| O=C(/C=C/c1ccc(O)cc1)NCCc1ccc(O)cc1 | 2.93 |

Four entries drawn at random from those above:

| SMILES | cell shape (Z-score) |
| --- | --- |
| CCN(CC)C(=S)SSC(=S)N(CC)CC | 6.44 |
| CC(=O)O[C@H]1C[C@@H](OC(C)=O)C(C)(C)C2C[C@@H](O)[C@]3(C)C(CC[C@@]4(C)[C@H](c5ccoc5)OC(=O)[C@H]5O[C@]543)[C@]21C (some centres undefined) | 1.01 |
| Cn1cc(C2=C(c3cn(CCCSC(=N)N)c4ccccc34)C(=O)NC2=O)c2ccccc21 | 14.6 |
| COC(=O)c1ccccc1NC(=O)c1ccc(F)cc1 | 0.691 |

(list continues)

| SMILES | cell shape (Z-score) |
| --- | --- |
| COC(=O)C1=COC(O[C@@H]2O[C@H](CO)[C@@H](O)[C@H](O)[C@H]2O)[C@@H]2[C@@H](C)[C@@H](OC(=O)/C=C/c3ccc(O)c(O)c3)[C@@H](O)[C@H]12 (some centres undefined) | 2.16 |
| CS(=O)c1ccc(-c2nc(-c3ccc(F)cc3)c(-c3ccncc3)[nH]2)cc1 (centres undefined) | 3.26 |
| COc1cc(CCC(O)CC(O)CCc2ccc(O)c(OC)c2)ccc1O (centres undefined) | 1.81 |
| C[C@@H]1CC[C@H]2[C@@H](C)C(O)O[C@@H]3O[C@]4(C)CC[C@@H]1[C@]32OO4 (some centres undefined) | 2.48 |
| S=c1ccss1 | 3.29 |
| O=C1c2c(O)cc(O)cc2O[C@H](c2ccccc2)[C@H]1O | 2.84 |
| CC(C)(C)C(=O)C(Oc1ccc(Cl)cc1)n1ccnc1 (centres undefined) | 1.92 |
| COc1ccc(-c2cc(=O)c3c(O)cc(O[C@@H]4O[C@@H](CO[C@@H]5O[C@H](C)[C@@H](O)[C@H](O)[C@H]5O)[C@H](O)[C@@H](O)[C@H]4O)cc3o2)cc1O | -0.595 |
| COc1ccc(/C=C/C(=O)Nc2ccccc2C(=O)O)cc1OC | 0.176 |
| CC(C)n1nnc2cc(C(=O)O)ccc21 | 3.96 |
| Cc1cc(NS(=O)(=O)c2ccc(N)cc2)no1 | -8.11 |
| CC(CN(C)C)CN1c2ccccc2CCc2ccccc21 (centres undefined) | 1.87 |
| O=C(CCCCCC/C=C/c1ccc2c(c1)OCO2)N1CCCCC1 | 2.57 |
| COc1cc(O[C@@H]2O[C@H](CO)[C@@H](O)[C@H](O)[C@H]2O)cc2occ(-c3ccc(O)cc3)c(=O)c12 | 1.17 |
| CN1CCN(CCOc2cc(OC3CCOCC3)c3c(Nc4c(Cl)ccc5c4OCO5)ncnc3c2)CC1 | 5.59 |
| Cc1c(Nc2ncccc2C(=O)O)cccc1C(F)(F)F | 2.7 |
| Cc1c(NC(C)C)c(=O)n(-c2ccccc2)n1C | 0.0308 |
| CC1OC(OC2C(OC3C(O[C@H]4CC[C@@]5(C)C(CC[C@]6(C)C5CC=C5C7CC(C)(C)CC(O)[C@]7(C)CC[C@]56C)C4(C)C)OC(C(=O)O)C(O)C3O)OCC(O)C2O)C(O)C(O)C1O (some centres undefined) | 1.53 |
| CCOC(=O)n1ccn(C)c1=S | 1.35 |
| O=C1OC(=O)C2C3CCC(O3)C12 (centres undefined) | 3.71 |
| CC(C)[C@H]1c2ccc(F)cc2CC[C@@]1(CCN(C)CCCc1nc2ccccc2[nH]1)OC(=O)C1CC1 | 4.07 |
| C=CC(C)(O)CC(/C=C(\C)CC(/C=C(\C)CCC=C(C)C)OC(C)=O)OC(C)=O (centres undefined) | -0.322 |
